Some results were stated once for a whole list of compounds, not compound by compound. Ends that are not written are not given here.
Test: In vivo distribution of Cy5.5-conjugated peptides after i.v. injection (IVIS optical imaging)
Design: species or system C57B/L6 mice
Conditions: after intraperitoneal administration (so in the source)
Text: The C57B/L6 mice (6˜8 week-old, female) were purchased from National Laboratory Animal Center, Taiwan. For optical imaging, animals were anesthetized by 2% isoflurane gas mixed with oxygen and intravenous injection (i.v.) of Cy5.5-conjugated peptide 1 or Cy5.5-conjugated peptide 5 (35 nmole/per mouse). After administration the mice were placed prone or supine in a dark box and a photographic image was first acquired at low light (exposure time: 5 seconds). At indicated time points after administration of probes, fluorescent signals were obtained using a CCD camera thermoelectrically cooled to −70° C. (Xenogen—IVIS® Spectrum Imaging System, Xenogen Technology). The photon integration period was 1-2 sec.

Substance: DEAQETAVSSHEQD-OH [Peptide 5]
- time to migrate from peripheral circulation through the blood-brain barrier to brain and spinal cord: 15 to 30 min

Reference: patent US10130676B2, “Therapeutic peptides for cerebrovascular diseases” (Prime Bio-Drug Development Limited, priority 2015, dated 2018)
